Experimental data as given in patent publication US12435087B2, “Modulators of DCN-1 and methods of use thereof” (Cellarity, Inc., priority 2023, dated 2025).
Read-outs that look alike come from different tables or passages of the source. The structures given here were assigned with low confidence; some may be wrong.

By UniProt entry, the sequences of proteins in these tests, tags left out. Residues count along the entry.
UniProt Q96GG9, 60-248 limits assumed: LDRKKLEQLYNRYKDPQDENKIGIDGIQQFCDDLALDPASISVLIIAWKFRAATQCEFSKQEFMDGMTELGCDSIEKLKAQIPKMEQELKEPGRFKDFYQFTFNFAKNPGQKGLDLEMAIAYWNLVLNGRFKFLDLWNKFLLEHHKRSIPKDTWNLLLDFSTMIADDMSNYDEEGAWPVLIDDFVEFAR
UniProt Q96GG9, whole entry: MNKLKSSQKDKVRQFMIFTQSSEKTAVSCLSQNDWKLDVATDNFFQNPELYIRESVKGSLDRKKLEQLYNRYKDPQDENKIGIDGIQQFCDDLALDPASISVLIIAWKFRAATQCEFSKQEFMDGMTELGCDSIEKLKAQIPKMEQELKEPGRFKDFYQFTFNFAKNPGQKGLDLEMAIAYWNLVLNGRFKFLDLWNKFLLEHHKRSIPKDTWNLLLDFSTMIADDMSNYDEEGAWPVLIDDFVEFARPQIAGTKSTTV

What was measured:
[1] = target: DCN1 (DCUND1) protein PONY domain (Homo sapiens (Human), UniProt Q96GG9); experiment: TR-FRET assay (binding to DCN-1, displacement of FAM-labeled probe)
[2] = target: DCN1 protein (Homo sapiens (Human), UniProt Q96GG9); experiment: Intact protein MS analysis with the RapidFire-TOF system (covalent adduct formation); settings: 400 nM DCN1, incubated at room temperature for 3 hours
[3] = read-out: TR FRET IC50 1 hr, 1 hr after treatment with compound
[4] = read-out: TR FRET IC50 24 hr, 24 hr after treatment with compound

Row | SMILES | IC50 [1, 3] [nM] | IC50 [1, 4] [nM] | % Adduct Formation (MS Emax) [2] | IC50 ([1]; read-out: TR FRET IC50 1 hr, 1 hr after treatment with compound, tested form: formate) [nM] | IC50 ([1]; read-out: TR FRET IC50 24 hr, 24 hr after treatment with compound, tested form: formate) [nM]
1 | C=C(CN1CCOCC1)C(=O)N(C)Cc1cccc([C@@H]2c3cnn(-c4ccccc4)c3N(CC)C(=O)[C@H]2NC(=O)c2cccc(C(F)(F)F)c2)c1 | 200 to 1000 | < 200 | – | – | –
2 | C=C(CN1CCOCC1)C(=O)N(C)c1cccc([C@H]2c3cnn(-c4ccccc4)c3N(CC)C(=O)[C@@H]2NC(=O)c2cccc(C(F)(F)F)c2)c1 (relative stereo) | 1000 to 3000 | 1000 to 3000 | – | – | –
3 | C=C(CN(C)C1COC1)C(=O)N(C)Cc1cccc([C@@H]2c3cnn(-c4ccccc4)c3N(CC)C(=O)[C@H]2NC(=O)c2ccn(C(F)(F)F)n2)c1 | 1000 to 3000 | 200 to 1000 | – | – | –
4 | C=C(CN1CCC(F)(F)C1)C(=O)NCc1cccc([C@@H]2c3cnn(-c4ccccc4)c3N(CC)C(=O)[C@H]2NC(=O)c2nccc(C(F)(F)F)n2)c1 | 200 to 1000 | < 200 | +++ (MS Emax % adduct formation greater than 80.0 and less than or equal to 100.0) | – | –
5 | CCN1C(=O)[C@H](NC(=O)c2cccc(C(F)(F)F)c2)[C@@H](c2cccc(NC(=O)C3=CCCC3)c2)c2c(C)nn(-c3ccccc3)c21 (relative stereo) | > 3000 | > 3000 | + (MS Emax % adduct formation greater than or equal to 0.0 and less than or equal to 30.0) | – | –
6 | C=C(C(=O)N(C)Cc1cccc([C@@H]2c3cnn(-c4ccccc4)c3N(CC)C(=O)[C@H]2NC(=O)c2nccc(C(F)(F)F)n2)c1)C(C)N(C)C1COC1 (some centres unmarked) | 1000 to 3000 | 200 to 1000 | – | – | –
7 | CCN1C(=O)[C@H](NC(=O)c2cccc(C(F)(F)F)c2)[C@@H](c2cccc(NC(=O)/C=C/C(F)(F)F)c2)c2c(C)nn(-c3ccccc3)c21 (relative stereo) | > 3000 | 200 to 1000 | +++ (MS Emax % adduct formation greater than 80.0 and less than or equal to 100.0) | – | –
8 | C=C(C(=O)NCc1cccc([C@@H]2c3cnn(-c4ccccc4)c3N(CC)C(=O)[C@H]2NC(=O)c2nccc(C(F)(F)F)n2)c1)C(C)N1CCC1 (some centres unmarked) | < 200 | < 200 | – | – | –
9 | C=C(Cn1ccnc1)C(=O)NCc1cccc([C@@H]2c3cnn(-c4ccccc4)c3N(CC)C(=O)[C@H]2NC(=O)c2nccc(C(F)(F)F)n2)c1 | – | – | – | 200 to 1000 | < 200
10 | C=C(C(=O)NCc1cccc([C@@H]2c3cnn(-c4ccccc4)c3N(CC)C(=O)[C@H]2NC(=O)c2ccn(C(F)(F)F)n2)c1)C(C)N(C)C1COC1 (some centres unmarked) | < 200 | < 200 | – | – | –
